Experimental findings from patent US20210388260A1, “USE OF A SUBSTITUTED OR UNSUBSTITUTED POLYCYCLIC AROMATIC HYDROCARBON COMPOUND FOR HIGH-RESOLUTION MICROSCOPY” (Max-Planck-Gesellschaft zur Förderung der Wissenschaften e.V, priority 2018, published 2021) are described below.

A short description of this series: Blinking properties of different compounds (duty cycle, photons per switching event, blinking time). In kind it is physicochemical.

With `Cc1cc(C)c(-c2c3cccc4c5ccc6ccc7c(-c8c(C)cc(C)cc8C)c8cccc9c%10ccc%11ccc2c2c%11c%10c%10c(c89)c7c6c5c%10c2c34)c(C)c1` [DBOV-Mes, 6,14-dimesityldibenzo[hi,st]ovalene], where the note is “Air”, the Blinking time is reported as 108 ms, the “Detected photons per switching event” value stood at 5.570 and the Duty cycle is 4.7 ×10^−4. For the setting “DPBS”, the Blinking time came out at 87 ms, the “Detected photons per switching event” value is 4.918 and the Duty cycle is 1.3 ×10^−4. For the same compound, for the setting “PS (polystyrene)”, the Blinking time was found to be 54 ms, the “Detected photons per switching event” value was determined as 4.902 and the Duty cycle was 8 ×10^−4.
